Assay results published in patent US9587223B2, “Protocols for making hepatocytes from embryonic stem cells” (Asterias Biotherapeutics, Inc., priority 2000, dated 2017).

Test system: hES cells (embryoid bodies)
Conditions: analogs of butyrate tested at 5 mM
Method: In this experiment, hES cells were maintained on primary mouse embryonic fibroblasts in serum-free medium according to standard methods.
The EBs were fed every other day.
Various analogs of butyrate were also tested at 5 mM.

CC(C)CC(=O)O [isovaleric acid]
causing hepatocyte differentiation: effective
